Test results taken from article doi:10.1101/2024.09.20.614208.

The chains behind the UniProt entries cited, without tags or fusion partners.
UniProt Q9UQ35, whole entry: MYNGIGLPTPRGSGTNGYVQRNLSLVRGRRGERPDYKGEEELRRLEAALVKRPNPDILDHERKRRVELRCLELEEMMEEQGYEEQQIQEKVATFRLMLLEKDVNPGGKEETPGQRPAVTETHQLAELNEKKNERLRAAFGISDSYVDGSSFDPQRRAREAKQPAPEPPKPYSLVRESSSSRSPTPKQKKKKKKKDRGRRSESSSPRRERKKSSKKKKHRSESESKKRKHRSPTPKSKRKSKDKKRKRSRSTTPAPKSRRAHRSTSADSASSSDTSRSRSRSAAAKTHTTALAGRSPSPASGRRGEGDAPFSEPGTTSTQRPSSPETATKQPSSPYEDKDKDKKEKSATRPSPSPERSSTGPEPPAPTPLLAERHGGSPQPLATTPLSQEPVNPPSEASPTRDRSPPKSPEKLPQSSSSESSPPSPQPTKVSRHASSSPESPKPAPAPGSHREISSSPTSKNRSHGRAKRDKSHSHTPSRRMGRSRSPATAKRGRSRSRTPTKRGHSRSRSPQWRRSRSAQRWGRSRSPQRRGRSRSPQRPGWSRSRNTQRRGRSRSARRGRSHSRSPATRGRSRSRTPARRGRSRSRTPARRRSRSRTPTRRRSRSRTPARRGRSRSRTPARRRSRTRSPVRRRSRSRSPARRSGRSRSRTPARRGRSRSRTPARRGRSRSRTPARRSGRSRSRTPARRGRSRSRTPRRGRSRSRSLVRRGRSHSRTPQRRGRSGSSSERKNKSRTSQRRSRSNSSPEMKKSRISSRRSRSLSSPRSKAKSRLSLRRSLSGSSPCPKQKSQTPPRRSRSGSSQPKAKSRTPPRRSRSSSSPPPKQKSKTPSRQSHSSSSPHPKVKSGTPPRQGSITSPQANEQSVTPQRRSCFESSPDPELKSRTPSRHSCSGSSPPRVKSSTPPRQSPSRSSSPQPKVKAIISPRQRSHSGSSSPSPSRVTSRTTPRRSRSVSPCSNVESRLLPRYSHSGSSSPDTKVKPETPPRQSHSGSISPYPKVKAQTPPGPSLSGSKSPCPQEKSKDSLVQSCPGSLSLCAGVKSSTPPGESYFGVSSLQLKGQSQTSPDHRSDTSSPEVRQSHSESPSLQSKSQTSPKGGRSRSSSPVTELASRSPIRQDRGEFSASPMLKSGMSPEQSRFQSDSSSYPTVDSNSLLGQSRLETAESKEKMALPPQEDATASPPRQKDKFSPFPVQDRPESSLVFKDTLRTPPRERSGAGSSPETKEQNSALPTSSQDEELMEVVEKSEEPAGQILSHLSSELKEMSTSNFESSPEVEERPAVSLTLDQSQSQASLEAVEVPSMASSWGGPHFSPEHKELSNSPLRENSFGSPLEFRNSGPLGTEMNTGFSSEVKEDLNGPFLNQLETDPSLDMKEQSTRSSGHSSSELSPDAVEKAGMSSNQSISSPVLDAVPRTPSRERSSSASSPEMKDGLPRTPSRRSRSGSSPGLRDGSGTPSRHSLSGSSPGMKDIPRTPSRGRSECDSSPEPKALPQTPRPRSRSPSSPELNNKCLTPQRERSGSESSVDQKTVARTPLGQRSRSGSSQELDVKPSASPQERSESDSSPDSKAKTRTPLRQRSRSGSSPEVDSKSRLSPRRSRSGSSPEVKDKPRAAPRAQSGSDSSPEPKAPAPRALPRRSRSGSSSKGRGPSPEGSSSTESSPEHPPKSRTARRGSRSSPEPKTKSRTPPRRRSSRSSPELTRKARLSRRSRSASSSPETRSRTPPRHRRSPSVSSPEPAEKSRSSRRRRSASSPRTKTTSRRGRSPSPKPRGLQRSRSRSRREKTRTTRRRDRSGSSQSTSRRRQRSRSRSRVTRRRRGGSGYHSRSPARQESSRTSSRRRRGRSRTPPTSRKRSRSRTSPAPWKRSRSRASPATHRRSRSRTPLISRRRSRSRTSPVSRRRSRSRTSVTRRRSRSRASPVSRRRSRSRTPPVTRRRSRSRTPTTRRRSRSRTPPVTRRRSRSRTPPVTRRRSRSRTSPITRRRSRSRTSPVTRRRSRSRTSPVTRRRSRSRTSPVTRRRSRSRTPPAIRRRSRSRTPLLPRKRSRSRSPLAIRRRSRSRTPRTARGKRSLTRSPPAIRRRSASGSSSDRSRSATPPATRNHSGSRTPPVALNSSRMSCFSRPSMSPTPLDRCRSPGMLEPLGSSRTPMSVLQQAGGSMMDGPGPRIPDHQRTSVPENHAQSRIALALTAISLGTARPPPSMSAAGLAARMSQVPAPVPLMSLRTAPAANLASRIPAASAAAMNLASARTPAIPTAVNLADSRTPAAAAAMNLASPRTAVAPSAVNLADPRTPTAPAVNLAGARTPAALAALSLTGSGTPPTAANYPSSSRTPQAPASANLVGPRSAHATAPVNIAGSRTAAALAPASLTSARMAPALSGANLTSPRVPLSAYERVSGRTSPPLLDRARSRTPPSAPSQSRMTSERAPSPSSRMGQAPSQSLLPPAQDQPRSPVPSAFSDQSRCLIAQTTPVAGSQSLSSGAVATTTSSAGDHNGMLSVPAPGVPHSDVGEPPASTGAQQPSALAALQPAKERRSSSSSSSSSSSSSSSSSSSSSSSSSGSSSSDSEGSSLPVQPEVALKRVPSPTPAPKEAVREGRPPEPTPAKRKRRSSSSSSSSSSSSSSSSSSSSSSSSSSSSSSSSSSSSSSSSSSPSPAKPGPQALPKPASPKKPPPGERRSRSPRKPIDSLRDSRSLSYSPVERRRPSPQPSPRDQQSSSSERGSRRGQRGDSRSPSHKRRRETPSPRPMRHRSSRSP

B1: KSHV K8α (protein, UniProt Q2HR82 1-286)
chain: MPRMKDIPTKSSPGTDNSEKDEAVIEEDLSLNGQPFFTDNTDGGENEVSWTSSLLSTYVGCQPPAIPVCETVIDLTAPSQSGAPGDEHLPCSLNAETKFHIPDPSWTLSHTPPRGPHISQQLPTRRSKRRLHRKFEEERLCTKAKQGAGRPVPASVVKVGNITPHYGEELTRGDAVPAAPITPPYPRVQRPAQPTHVLFSPVFVSLKAEVCDQSHSPTRKQGRYGRVSSKAYTRQLQQALEEKDAQLCFLAARLEAHKEQIIFLRDMLMRMCQQPASPTDAPLPPC
B2: KSHV ORF6 (protein, UniProt Q2HRD3 1-1132)
chain: MALKGPQTLEENIGSAAPTGPCGYLYAYVTHNFPIGEASLLGNGYPEAKVFSLPLLHGLTVESDFPLNVKAVHKKIDATTASVKLTSYHREAIVFHNTHLFQPIFQGKGLEKLCRESRELFGFSTFVEQQHKGTLWSPEACPQLPCANEIFMAVIVTEGFKERLYGGKLVPVPSQTTPVHIGEHQAFKIPLYDEDLFGPSRAQELCRFYNPDISRYLHDSIFTGIAQALRVKDVSTVIQASERQFVHDQYKIPKLVQAKDFPQCASRGTDGSTLMVIDSLVAELGMSYGLSFIEGPQDSCEVLNYDTWPIFENCETPDARLRALEVWHAEQALHIGAQLFAANSVLYLTRVAKLPQKNQRGDANMYNSFYLQHGLGYLSEATVKENGASAFKGVPVSALDGSSYTLQHLAYASSFSPHLLARMCYYLQFLPHHKNTNSQSYNVVDYVGTAAPSQMCDLCQGQCPAVCINTLFYRMKDRFPPVLSNVKRDPYVITGTAGTYNDLEILGNFATFREREEEGNPVEDAPKYTYWQLCQNITEKLASMGISEGGDALRTLIVDIPSFVKVFKGIDSTVEAELLKFINCMIKNNYNFRENIKSVHHILQFACNVYWQAPCPVFLTLYYKSLLTVIQDICLTSCMMYEQDNPAVGIVPSEWLKMHFQTMWTNFKGACFDKGAITGGELKIVHQSMFCDLFDTDAAIGGMFAPARMQVRIARAMLMVPKTIKIKNRIIFSNSTGAESIQAGFMKPASQRDSYIVGGPYMKFLNALHKTLFPSTKTSALYLWHKIGQTTKNPILPGVSGEHLTELCNYVKASSQAFEEINVLDLVPDTLTSYAKIKLNSSILRACGQTQFYATTLSCLSPVTQLVPAEEYPHVLGPVGLSSPDEYRVKVAGRSVTIVQSTLKQAVSTNGRLRPIITVPLVVNKYTGSNGNTNVFHCANLGYFSGRGVDRNLRPESVPFKKNNVSSMLRKRHVIMTPLVDRLVKRIVGINSGEFEAEAVKRSVQNVLEDRDNPNLPKTVVLELVKHLGSSCASLTEEDVIYYLGPYAVLGDEVLSLLSTVGQAGVPWTAEGVASVIQDIIDDCELQFVGPEEPCLIQGQSVVEELFPSPGVPSLTVGKKRKIASLLSDLDL

Biological target: serine/arginine repetitive matrix 2 (SRRM2) (human (endogenous in iSLK)) (UniProt Q9UQ35)
Test: affinity purification with mass spectrometry

Molecule | binding
KSHV replication and transcription activator (RTA) (from UniProt F5HCV3 1-691) | binds
B1 | binds
B2 | binds

No constants are given. Whether binding was seen depends on the method and setting. In cells and extracts the contact can be indirect. These calls come from enrichment with a bait or labelling near it, and not all partners need be listed.
